The other results are listed elsewhere or left out.
Compound: CC1Cc2ccccc2N1C(=O)C1CCCN(C1)C(=O)CCl (mixture of isomers) [TRIM25 ligand 11 (diastereomer mixture)]
Experiment: probe-labelled cysteine peptide fold change vs DMSO (competition) (log2 fold change); higher = less target engagement (more negative = stronger competition)
Details: THP-1, incubation time: 4 h
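Note: competitive chemoproteomic profiling in live THP-1 cells with an iodoacetamide desthiobiotin (IA-DTB) probe, comparing probe-labelled peptide intensities in compound-treated cells against DMSO-treated controls.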

By UniProt entry, the sequences of proteins in these tests, tags left out. Where a name states a change or a piece, a line headed by the entry shows the natural chain unless it says otherwise.
UniProt Q8N3C0, whole entry, looked up: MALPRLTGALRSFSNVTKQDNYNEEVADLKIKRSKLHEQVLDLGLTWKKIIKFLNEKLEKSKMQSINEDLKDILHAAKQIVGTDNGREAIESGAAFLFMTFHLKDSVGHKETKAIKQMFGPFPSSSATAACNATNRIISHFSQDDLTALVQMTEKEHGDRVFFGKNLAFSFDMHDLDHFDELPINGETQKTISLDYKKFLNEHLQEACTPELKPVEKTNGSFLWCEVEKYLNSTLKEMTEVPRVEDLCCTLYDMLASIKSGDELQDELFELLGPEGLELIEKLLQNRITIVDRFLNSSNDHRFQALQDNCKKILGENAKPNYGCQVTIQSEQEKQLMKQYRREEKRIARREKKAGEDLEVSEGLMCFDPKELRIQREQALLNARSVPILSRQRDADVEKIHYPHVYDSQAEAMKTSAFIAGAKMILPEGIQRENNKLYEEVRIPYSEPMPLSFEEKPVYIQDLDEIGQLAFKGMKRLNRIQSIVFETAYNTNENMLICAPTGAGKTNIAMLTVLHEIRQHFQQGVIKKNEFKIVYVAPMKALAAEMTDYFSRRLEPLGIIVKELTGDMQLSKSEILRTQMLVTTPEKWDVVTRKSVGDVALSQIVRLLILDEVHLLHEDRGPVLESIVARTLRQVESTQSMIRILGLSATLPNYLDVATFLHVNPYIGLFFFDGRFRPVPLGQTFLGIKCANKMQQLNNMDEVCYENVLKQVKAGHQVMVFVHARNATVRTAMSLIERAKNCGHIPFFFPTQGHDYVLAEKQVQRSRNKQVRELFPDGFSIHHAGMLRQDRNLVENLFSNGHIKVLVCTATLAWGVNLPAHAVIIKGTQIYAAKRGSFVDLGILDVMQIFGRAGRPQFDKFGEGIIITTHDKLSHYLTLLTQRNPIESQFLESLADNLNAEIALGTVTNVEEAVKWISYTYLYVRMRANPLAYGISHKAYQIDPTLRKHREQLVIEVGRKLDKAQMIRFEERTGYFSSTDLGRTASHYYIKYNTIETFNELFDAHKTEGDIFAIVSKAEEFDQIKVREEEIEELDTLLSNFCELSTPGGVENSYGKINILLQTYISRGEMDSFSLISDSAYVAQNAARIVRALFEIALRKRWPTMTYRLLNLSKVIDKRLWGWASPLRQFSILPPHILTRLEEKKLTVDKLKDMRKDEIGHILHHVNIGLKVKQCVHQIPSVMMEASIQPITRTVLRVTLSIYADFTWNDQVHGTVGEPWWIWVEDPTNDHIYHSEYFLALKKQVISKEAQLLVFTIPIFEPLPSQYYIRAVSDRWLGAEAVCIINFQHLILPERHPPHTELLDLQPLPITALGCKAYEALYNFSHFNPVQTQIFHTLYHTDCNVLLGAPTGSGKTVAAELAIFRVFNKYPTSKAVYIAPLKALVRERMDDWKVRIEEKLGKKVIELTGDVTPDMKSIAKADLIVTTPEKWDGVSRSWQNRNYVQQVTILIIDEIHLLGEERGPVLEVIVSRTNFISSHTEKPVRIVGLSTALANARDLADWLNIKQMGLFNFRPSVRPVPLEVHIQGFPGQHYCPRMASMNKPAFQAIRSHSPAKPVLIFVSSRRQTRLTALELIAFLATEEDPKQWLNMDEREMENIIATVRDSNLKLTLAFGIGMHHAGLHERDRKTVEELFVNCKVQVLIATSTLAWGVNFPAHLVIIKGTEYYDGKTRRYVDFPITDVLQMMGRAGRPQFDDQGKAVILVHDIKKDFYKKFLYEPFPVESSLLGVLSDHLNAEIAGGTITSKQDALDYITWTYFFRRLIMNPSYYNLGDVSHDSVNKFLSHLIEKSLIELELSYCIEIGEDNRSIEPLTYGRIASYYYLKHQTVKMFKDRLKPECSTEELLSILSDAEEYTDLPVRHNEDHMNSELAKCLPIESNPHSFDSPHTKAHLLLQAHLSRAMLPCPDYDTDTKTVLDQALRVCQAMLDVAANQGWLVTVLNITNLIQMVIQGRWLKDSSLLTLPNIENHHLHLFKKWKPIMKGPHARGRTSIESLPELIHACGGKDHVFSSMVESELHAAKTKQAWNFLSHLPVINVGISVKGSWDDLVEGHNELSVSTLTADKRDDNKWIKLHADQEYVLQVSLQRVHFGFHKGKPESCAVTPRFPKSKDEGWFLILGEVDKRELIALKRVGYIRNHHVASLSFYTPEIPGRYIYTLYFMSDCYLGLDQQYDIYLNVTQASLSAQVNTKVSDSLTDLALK
UniProt Q13315: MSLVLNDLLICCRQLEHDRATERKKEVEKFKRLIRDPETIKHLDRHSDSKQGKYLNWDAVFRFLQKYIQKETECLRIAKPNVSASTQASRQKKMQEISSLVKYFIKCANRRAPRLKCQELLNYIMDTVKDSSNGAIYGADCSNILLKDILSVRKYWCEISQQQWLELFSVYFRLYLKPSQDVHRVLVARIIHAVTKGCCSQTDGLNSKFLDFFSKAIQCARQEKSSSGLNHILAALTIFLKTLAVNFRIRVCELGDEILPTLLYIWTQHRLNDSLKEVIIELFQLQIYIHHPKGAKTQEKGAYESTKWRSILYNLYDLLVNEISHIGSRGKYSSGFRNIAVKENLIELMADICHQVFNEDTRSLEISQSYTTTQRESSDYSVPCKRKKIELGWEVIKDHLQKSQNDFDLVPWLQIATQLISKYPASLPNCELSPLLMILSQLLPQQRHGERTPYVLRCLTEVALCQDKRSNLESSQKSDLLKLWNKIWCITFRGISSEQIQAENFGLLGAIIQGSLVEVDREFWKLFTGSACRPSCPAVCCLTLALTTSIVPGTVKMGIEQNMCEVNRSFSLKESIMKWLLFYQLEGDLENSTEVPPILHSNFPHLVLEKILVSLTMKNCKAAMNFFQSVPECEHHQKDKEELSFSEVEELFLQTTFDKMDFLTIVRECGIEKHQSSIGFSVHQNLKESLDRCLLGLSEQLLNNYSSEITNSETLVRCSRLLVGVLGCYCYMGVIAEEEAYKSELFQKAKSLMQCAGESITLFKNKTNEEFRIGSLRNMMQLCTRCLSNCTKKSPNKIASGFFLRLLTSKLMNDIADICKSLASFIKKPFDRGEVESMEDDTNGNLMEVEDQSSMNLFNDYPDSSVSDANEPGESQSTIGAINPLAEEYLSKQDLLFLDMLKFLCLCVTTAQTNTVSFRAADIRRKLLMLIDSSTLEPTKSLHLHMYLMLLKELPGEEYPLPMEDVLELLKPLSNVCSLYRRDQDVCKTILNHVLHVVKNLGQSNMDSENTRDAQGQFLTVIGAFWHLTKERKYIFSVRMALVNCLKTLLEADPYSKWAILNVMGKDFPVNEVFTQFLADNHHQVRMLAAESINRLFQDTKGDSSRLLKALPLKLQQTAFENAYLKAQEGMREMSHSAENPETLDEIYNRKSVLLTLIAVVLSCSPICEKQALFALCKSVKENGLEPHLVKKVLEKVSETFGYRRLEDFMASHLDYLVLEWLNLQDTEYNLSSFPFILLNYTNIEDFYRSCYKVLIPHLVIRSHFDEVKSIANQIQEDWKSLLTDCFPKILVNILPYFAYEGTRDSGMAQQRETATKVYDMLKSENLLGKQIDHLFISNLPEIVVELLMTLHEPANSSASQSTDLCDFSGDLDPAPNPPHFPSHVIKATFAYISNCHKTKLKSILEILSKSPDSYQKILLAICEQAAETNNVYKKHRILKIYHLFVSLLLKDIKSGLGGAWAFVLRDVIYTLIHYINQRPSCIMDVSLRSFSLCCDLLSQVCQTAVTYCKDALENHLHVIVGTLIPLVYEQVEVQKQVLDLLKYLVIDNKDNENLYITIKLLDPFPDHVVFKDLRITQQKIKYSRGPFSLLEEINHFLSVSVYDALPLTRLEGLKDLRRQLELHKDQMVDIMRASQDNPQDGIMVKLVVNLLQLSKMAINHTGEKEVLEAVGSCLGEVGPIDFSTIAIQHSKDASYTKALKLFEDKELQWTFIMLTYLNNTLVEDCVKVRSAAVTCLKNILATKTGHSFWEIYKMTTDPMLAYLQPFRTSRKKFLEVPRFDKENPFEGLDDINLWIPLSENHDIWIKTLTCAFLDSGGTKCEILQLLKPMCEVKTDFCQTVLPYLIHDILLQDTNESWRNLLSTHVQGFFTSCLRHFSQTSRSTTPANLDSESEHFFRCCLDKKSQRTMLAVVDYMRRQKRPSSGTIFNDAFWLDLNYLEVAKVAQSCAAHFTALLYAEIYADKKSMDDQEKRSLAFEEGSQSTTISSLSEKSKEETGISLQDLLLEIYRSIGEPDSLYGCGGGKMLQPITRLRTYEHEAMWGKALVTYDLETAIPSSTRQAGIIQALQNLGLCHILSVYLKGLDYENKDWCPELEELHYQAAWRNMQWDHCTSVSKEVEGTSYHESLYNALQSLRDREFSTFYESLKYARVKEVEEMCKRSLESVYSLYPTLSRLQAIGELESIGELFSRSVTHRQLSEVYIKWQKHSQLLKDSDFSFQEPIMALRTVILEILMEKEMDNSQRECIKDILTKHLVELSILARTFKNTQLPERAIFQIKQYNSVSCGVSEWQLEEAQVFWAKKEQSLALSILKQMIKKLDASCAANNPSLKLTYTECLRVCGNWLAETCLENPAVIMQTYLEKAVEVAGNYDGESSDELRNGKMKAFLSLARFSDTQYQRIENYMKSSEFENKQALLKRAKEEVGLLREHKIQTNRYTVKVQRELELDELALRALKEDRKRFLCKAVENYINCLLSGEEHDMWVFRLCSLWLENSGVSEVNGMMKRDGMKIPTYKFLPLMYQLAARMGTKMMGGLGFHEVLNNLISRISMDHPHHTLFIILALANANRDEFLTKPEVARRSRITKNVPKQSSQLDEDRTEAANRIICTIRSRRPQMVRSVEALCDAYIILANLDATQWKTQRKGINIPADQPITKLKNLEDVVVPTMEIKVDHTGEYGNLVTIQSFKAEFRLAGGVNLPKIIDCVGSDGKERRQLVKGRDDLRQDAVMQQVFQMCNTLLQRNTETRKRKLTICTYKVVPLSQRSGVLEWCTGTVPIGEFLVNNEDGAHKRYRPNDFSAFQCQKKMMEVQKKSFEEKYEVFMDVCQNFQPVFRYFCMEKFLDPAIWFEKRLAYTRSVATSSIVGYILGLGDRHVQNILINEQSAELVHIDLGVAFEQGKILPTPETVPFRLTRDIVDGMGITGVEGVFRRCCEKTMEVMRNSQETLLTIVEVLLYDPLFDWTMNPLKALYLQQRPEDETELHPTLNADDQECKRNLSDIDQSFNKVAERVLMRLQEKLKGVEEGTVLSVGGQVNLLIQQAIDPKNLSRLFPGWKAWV
UniProt Q9Y487, whole entry, looked up: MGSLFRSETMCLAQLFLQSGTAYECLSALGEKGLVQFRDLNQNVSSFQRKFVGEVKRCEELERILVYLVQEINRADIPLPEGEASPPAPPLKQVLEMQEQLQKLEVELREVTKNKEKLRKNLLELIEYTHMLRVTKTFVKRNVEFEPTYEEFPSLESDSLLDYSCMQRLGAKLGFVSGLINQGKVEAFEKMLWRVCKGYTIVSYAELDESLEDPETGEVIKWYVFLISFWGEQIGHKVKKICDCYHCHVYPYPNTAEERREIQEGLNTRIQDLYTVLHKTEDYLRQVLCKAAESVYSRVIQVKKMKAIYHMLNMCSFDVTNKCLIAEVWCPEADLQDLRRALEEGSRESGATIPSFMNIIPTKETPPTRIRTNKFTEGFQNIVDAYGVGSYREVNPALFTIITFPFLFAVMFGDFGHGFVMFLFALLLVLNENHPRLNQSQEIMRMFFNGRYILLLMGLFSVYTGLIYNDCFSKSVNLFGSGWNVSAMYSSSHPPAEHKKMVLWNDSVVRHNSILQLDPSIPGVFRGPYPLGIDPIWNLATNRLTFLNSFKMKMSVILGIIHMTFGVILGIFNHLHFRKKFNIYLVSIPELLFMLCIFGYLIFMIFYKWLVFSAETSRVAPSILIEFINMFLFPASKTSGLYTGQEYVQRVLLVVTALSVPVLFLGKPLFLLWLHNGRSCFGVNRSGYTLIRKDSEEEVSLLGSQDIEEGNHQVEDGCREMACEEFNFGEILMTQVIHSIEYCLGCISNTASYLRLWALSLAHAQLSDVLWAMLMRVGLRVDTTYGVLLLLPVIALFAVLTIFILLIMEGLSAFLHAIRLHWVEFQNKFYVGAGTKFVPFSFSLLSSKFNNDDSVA
UniProt P21283, whole entry, looked up: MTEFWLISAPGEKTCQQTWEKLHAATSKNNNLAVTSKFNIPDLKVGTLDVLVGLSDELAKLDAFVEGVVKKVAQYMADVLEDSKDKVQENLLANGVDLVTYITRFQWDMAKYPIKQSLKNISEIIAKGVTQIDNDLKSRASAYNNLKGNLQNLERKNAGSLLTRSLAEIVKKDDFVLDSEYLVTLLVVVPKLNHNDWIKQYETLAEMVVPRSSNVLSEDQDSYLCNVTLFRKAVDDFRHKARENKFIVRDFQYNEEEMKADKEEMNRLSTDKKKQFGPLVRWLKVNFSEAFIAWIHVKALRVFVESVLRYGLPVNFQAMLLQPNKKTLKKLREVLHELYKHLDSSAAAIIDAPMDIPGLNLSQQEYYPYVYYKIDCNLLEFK
UniProt O00244: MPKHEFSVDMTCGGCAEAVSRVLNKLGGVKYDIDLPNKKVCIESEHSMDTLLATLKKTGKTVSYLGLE

Target: ARSB_P15848_121_TGLQHQIIWPCQPSCVPLDEK (UniProt P15848)
- probe-labelled cysteine peptide fold change (10 µM): 0.262
- probe-labelled cysteine peptide fold change (50 µM): 0.383

Target: ATP6V1B2_P21281_258_SDFEENGSMDNVCLFLNLANDPTIER (UniProt P21281)
- probe-labelled cysteine peptide fold change (10 µM): -0.196
- probe-labelled cysteine peptide fold change (50 µM): -0.0904

Target: ASCC3_Q8N3C0_742_NCGHIPFFFPTQGHDYVLAEK (UniProt Q8N3C0)
- probe-labelled cysteine peptide fold change (10 µM): 0.126
- probe-labelled cysteine peptide fold change (50 µM): 0.283

Target: ATP6V1H_Q9UI12_312_QEYALAMIQCK (UniProt Q9UI12)
- probe-labelled cysteine peptide fold change (10 µM): -0.0722
- probe-labelled cysteine peptide fold change (50 µM): -0.0728

Target: ATM_Q13315_1821_CEILQLLK (UniProt Q13315)
- probe-labelled cysteine peptide fold change (10 µM): -0.00288
- probe-labelled cysteine peptide fold change (50 µM): -0.125

Target: ASH1L_Q9NR48_157_KADDVAAIECQSEEVIR (UniProt Q9NR48)
- probe-labelled cysteine peptide fold change (10 µM): -0.205
- probe-labelled cysteine peptide fold change (50 µM): -0.438

Target: ARPC1B_O15143_70_IVTCGTDR (UniProt O15143)
- probe-labelled cysteine peptide fold change (10 µM): -0.0524
- probe-labelled cysteine peptide fold change (50 µM): 0.0793

Target: ATG16L1_Q676U5_145_IAECLQTISDLETECLDLR (UniProt Q676U5)
- probe-labelled cysteine peptide fold change (10 µM): 0.0275
- probe-labelled cysteine peptide fold change (50 µM): -0.0177

Target: ATP6V1B2_P21281_425_KDHADVSNQLYACYAIGK (UniProt P21281)
- probe-labelled cysteine peptide fold change (10 µM): -0.13
- probe-labelled cysteine peptide fold change (50 µM): 0.0617

Target: ATP6V0A2_Q9Y487_330_CLIAEVWCPEADLQDLRR (UniProt Q9Y487)
- probe-labelled cysteine peptide fold change (10 µM): -0.0765
- probe-labelled cysteine peptide fold change (50 µM): 0.0285

Target: ASB3_Q9Y575_295_VSPVYSAVFGGHEDCLEILLR (UniProt Q9Y575)
- probe-labelled cysteine peptide fold change (10 µM): 0.121
- probe-labelled cysteine peptide fold change (50 µM): 0.0802

Target: ATP2A1_O14983_349_SLPSVETLGCTSVICSDK (UniProt O14983)
- probe-labelled cysteine peptide fold change (10 µM): 0.0588
- probe-labelled cysteine peptide fold change (50 µM): 0.107

Target: ATP2C1_P98194_162_DLVPGDTVCLSVGDRVPADLR (UniProt P98194)
- probe-labelled cysteine peptide fold change (10 µM): -0.0916
- probe-labelled cysteine peptide fold change (50 µM): -0.115

Target: ATP5PD_O75947_101_SCAEWVSLSK (UniProt O75947)
- probe-labelled cysteine peptide fold change (10 µM): -0.282
- probe-labelled cysteine peptide fold change (50 µM): -0.438

Target: ATP6V1C1_P21283_225_SSNVLSEDQDSYLCNVTLFR (UniProt P21283)
- probe-labelled cysteine peptide fold change (10 µM): 0.0787
- probe-labelled cysteine peptide fold change (50 µM): 0.202

Target: ASPSCR1_Q9BZE9_109_LQDSFCSGQTLWELLSHFPQIR (UniProt Q9BZE9)
- probe-labelled cysteine peptide fold change (10 µM): 0.0218
- probe-labelled cysteine peptide fold change (50 µM): -0.00341

Target: ATP13A1_Q9HD20_18_AAAAAVGNAVPCGARPCGVRPDGQPKPGPQPR (UniProt Q9HD20)
- probe-labelled cysteine peptide fold change (10 µM): -0.187
- probe-labelled cysteine peptide fold change (50 µM): -0.278

Target: ATOX1_O00244_41_VCIESEHSMDTLLATLKK (UniProt O00244)
- probe-labelled cysteine peptide fold change (10 µM): -0.138
- probe-labelled cysteine peptide fold change (50 µM): -0.166

Target: ATP13A1_Q9HD20_18_AAAAAVGNAVPCGARPCGVRPDGQPK (UniProt Q9HD20)
- probe-labelled cysteine peptide fold change (10 µM): -0.133
- probe-labelled cysteine peptide fold change (50 µM): -0.18

Target: ATP5F1A_P25705_244_KLYCIYVAIGQK (UniProt P25705)
- probe-labelled cysteine peptide fold change (10 µM): -0.433
- probe-labelled cysteine peptide fold change (50 µM): 0.0534

Target: ATP6V0A2_Q9Y487_323_CLIAEVWCPEADLQDLRR (UniProt Q9Y487)
- probe-labelled cysteine peptide fold change (10 µM): 0.171
- probe-labelled cysteine peptide fold change (50 µM): 0.192

Target: ASAP1_Q9ULH1_627_TADQTSLHLVDFLVQNCGNLDK (UniProt Q9ULH1)
- probe-labelled cysteine peptide fold change (10 µM): -0.147
- probe-labelled cysteine peptide fold change (50 µM): -0.263

Target: ATM_Q13315_2112_NMQWDHCTSVSK (UniProt Q13315)
- probe-labelled cysteine peptide fold change (10 µM): -0.0329
- probe-labelled cysteine peptide fold change (50 µM): -0.222

Target: ATM_Q13315_2801_YRPNDFSAFQCQK (UniProt Q13315)
- probe-labelled cysteine peptide fold change (10 µM): -0.029
- probe-labelled cysteine peptide fold change (50 µM): -0.0597

Target: ATP13A1_Q9HD20_723_FVGFIVVSCPLK (UniProt Q9HD20)
- probe-labelled cysteine peptide fold change (10 µM): -0.194
- probe-labelled cysteine peptide fold change (50 µM): -0.0572

Target: ATG7_O95352_298_LPEMAFSPDCPK (UniProt O95352)
- probe-labelled cysteine peptide fold change (10 µM): -0.028
- probe-labelled cysteine peptide fold change (50 µM): -0.0957

Target: ASAP1_Q9ULH1_557_TCSTSSAK (UniProt Q9ULH1)
- probe-labelled cysteine peptide fold change (10 µM): 0.0412
- probe-labelled cysteine peptide fold change (50 µM): 0.0216

Target: ATP5PO_P48047_141_GEVPCTVTSASPLEEATLSELK (UniProt P48047)
- probe-labelled cysteine peptide fold change (10 µM): 0.163
- probe-labelled cysteine peptide fold change (50 µM): 0.0371

Target: ATP6V0A1_Q93050_58_CEEMDRK (UniProt Q93050)
- probe-labelled cysteine peptide fold change (10 µM): 0.00168
- probe-labelled cysteine peptide fold change (50 µM): 0.0322

Target: ATP2B1_P20020_463_HLDACETMGNATAICSDK (UniProt P20020)
- probe-labelled cysteine peptide fold change (10 µM): 0.101
- probe-labelled cysteine peptide fold change (50 µM): -0.00247

Target: ASCC3_Q8N3C0_366_AGEDLEVSEGLMCFDPK (UniProt Q8N3C0)
- probe-labelled cysteine peptide fold change (10 µM): 0.00436
- probe-labelled cysteine peptide fold change (50 µM): -0.276

Target: ARPC2_O15144_120_NCFASVFEK (UniProt O15144)
- probe-labelled cysteine peptide fold change (10 µM): 0.028
- probe-labelled cysteine peptide fold change (50 µM): -0.00701

Target: ARPC1B_O15143_346_CSQFCTTGMDGGMSIWDVK (UniProt O15143)
- probe-labelled cysteine peptide fold change (10 µM): -0.0666
- probe-labelled cysteine peptide fold change (50 µM): -0.0491

Target: ASH2L_Q9UBL3_362_LELDCWAGKPIPGDLYR (UniProt Q9UBL3)
- probe-labelled cysteine peptide fold change (10 µM): 0.0773
- probe-labelled cysteine peptide fold change (50 µM): 0.173

Target: ARRB2_P32121_126_LGQHAHPFFFTIPQNLPCSVTLQPGPEDTGK (UniProt P32121)
- probe-labelled cysteine peptide fold change (10 µM): 0.104
- probe-labelled cysteine peptide fold change (50 µM): 0.102

Target: ASF1B_Q9NVP2_201_GLGLPGCIPGLLPENSMDCI (UniProt Q9NVP2)
- probe-labelled cysteine peptide fold change (10 µM): 0.064
- probe-labelled cysteine peptide fold change (50 µM): 0.0786

Target: ASNS_P08243_43+44_FENVNGYTNCCFGFHR (UniProt P08243)
- probe-labelled cysteine peptide fold change (10 µM): -0.00447
- probe-labelled cysteine peptide fold change (50 µM): 0.0682

Source: the supplement of paper PMC12067093, “Discovery and optimisation of a covalent ligand for TRIM25 and its application to targeted protein ubiquitination” (Chemical Science, 2025)
